Literature values, collected in patent US20060264381A1, “Methods of treating obsessive compulsive disorder” (priority 2005, published 2006).
At least one structure is not confirmed: it was looked up by name or label, or the drawing left a doubt.

Tested on: Drosophila mGluR, DmGluRA
Details: flies lacking dfmr1 raised with food containing drug

Compound: [Li] [lithium]
- rescue of phenotypes in mutant flies (altered courtship behavior, decreased memory in conditioned courtship assay, mushroom body structure): effective
